Assay results: article PMC7191749, “Low phosphatase activity of LiaS and strong LiaR-DNA affinity explain the unusual LiaS to LiaR in vivo stoichiometry” (BMC Microbiology, 2020)
For at least one entry, the source does not settle the construct or the ends of the probe.

Amino acid sequences for entries named in this document (tags omitted). A change or cut given only in a name is not applied to a line headed by its entry.
UniProt O32197: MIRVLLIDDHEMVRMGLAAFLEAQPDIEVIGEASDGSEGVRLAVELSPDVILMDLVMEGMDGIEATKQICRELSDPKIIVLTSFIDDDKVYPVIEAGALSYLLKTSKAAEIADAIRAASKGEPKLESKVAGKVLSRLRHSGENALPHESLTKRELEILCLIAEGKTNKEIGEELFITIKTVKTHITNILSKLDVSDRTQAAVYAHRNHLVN

Biological target: LiaR~P (acetyl phosphate treated) (Bacillus subtilis 168) (UniProt O32197)
Assay: EMSA
Conditions: affinity slightly enhanced over unphosphorylated, EMSA: 10 mM Tris pH 7.5, 50 mM KCl, 1 mM DTT, 5 mM MgCl2, 10 ng herring sperm DNA, 2.5% glycerol, 25 C, 30 min, 9% native PAGE, recombinant protein, residues 1-211, label: 5'-32P, probe letters rebuilt from the primers and the genome

TTCATGCAGATCCTCCTTTCGTTTTCCTTGTCTTCATCTTATACAAGTTGGAAGATATGCAAAACGAATCAGAGATTGATTTTTATATAAGACCGGAGTCGTATCTCGCACCGGACCCATTGGCACAAAAAAACGCCATGCACGAGGCATGGCGTTTTAAAACCCTTTACAGATGAACACTTGCTTCCCTTTC (double strand) [PliaI (-162 to +31)]
binding result: binds
